# Where a name gives a salt, the structure may show the parent alone. The list shows a part of the results. Single values are uncertain, as repeats are few or missing.
# Tested on: p95-ErbB2-MCF7
# Experiment: perinuclear lysosome accumulation (PNLA, size of LAMP2 puncta), robust Z-score vs plate median; higher = more perinuclear lysosome accumulation (reversal of invasive lysosome distribution)
# Settings: 5 µM; 24 h
row,SMILES,perinuclear lysosome accumulation
1,CC(=O)OCC(=O)[C@H]1CC[C@H]2[C@@H]3CC[C@H]4C[C@H](O)CC[C@]4(C)[C@H]3C(=O)C[C@]12C [Alfadolone acetate],1.67
2,CC(C)c1c(CN(C)C(C)Cc2ccccc2)n(C)n(-c2ccccc2)c1=O (configuration not stated) [Famprofazone],0.467
3,O=P1(NCCCl)OCCCN1CCCl (configuration not stated) [Ifosfamide],0.782
4,COc1cc2c(cc1OC)C(C)NCC2 (configuration not stated),-1.08
5,NC(=O)CN1CCCC1=O [Piracetam],1.18
6,Cc1cccc(C)c1NC1=NCCCS1 [Xylazine],0.873
7,CC(Cc1ccccc1)NCCC(c1ccccc1)c1ccccc1 (configuration not stated) [Prenylamine lactate],2.94
8,CC(=O)NC1CCSC1=O (racemic) [N-Acetyl-DL-homocysteine Thiolactone],-1
9,C[C@]12CC[C@H](O)C[C@H]1CC[C@@H]1[C@@H]2C[C@@H](O)[C@]2(C)[C@@H](C3=CC(=O)OC3)CC[C@]12O [Digoxigenin],1.07
10,Clc1ccc(C(OCCN2CCCCC2)c2ccccc2)cc1 (configuration not stated) [Cloperastine hydrochloride],1.17
11,CN1CCN(C(=O)OC2c3nccnc3C(=O)N2c2ccc(Cl)cn2)CC1 (configuration not stated) [Zopiclone],0.925
12,NC(=O)C[S+]([O-])C(c1ccccc1)c1ccccc1 (configuration not stated) [Modafinil],-0.121
13,COc1ccc2c(c1)[nH]c1c(C)nccc12 [Harmine hydrochloride],-0.264
14,CN1[C@@H](C[C@@H](O)c2ccccc2)CCC[C@H]1C[C@H](O)c1ccccc1 [Lobelanidine hydrochloride],-0.85
15,NCCc1c[nH]c2ccc(O)cc12 [Serotonin hydrochloride],1.32
16,CCN(C(C)=O)c1cccc(-c2ccnc3c(C#N)cnn23)c1 [Zaleplon],-0.742
17,COc1cc([C@@H]2c3cc4c(cc3[C@H](O)[C@H]3COC(=O)[C@H]23)OCO4)cc(OC)c1OC [Podophyllotoxin],5.29
18,CCC1(c2cccc(O)c2)CCCCN(C)C1 (configuration not stated) [Meptazinol hydrochloride],0.164
19,C[C@@H]1CC[C@H]2[C@@H](C)C(=O)O[C@@H]3O[C@@]4(C)CC[C@@H]1[C@]32OO4 [Artemisinin],2.37
20,CCNC1(c2cccs2)CCCCC1=O (configuration not stated) [Tiletamine hydrochloride],0.742
21,C[C@]12Cc3c[nH]nc3C[C@@H]1CC[C@@H]1[C@@H]2CC[C@@]2(C)[C@H]1CC[C@]2(C)O [Stanozolol],0.112
22,CC(C)(C)NCC(O)c1ccccc1Cl (configuration not stated) [Tulobuterol],-0.459
23,CO[C@]12C[C@@H](COC(=O)c3cncc(Br)c3)CN(C)[C@@H]1Cc1cn(C)c3cccc2c13 [Nicergoline],-1.14
24,"CC(=O)OCC1=C(C(=O)O)N2C(=O)[C@@H](N)[C@H]2SC1 [Cephalosporanic acid, 7-amino]",-0.443

# 2 entries picked at random from those above:
row,SMILES,perinuclear lysosome accumulation
16,CCN(C(C)=O)c1cccc(-c2ccnc3c(C#N)cnn23)c1 [Zaleplon],-0.742
1,CC(=O)OCC(=O)[C@H]1CC[C@H]2[C@@H]3CC[C@H]4C[C@H](O)CC[C@]4(C)[C@H]3C(=O)C[C@]12C [Alfadolone acetate],1.67

# (next part)

row,SMILES,perinuclear lysosome accumulation
1,C[C@@]12N[C@@H](Cc3ccccc31)c1ccccc12 [(-)-MK 801 hydrogen maleate],1.73
2,C[N+]12CCC(CC1)C(OC(=O)C(O)(c1ccccc1)c1ccccc1)C2 (configuration not stated) [Clidinium bromide],0.715
3,Oc1cc(Cl)ccc1Oc1ccc(Cl)cc1Cl [Triclosan],0.237
4,O[C@@H]1CCCC[C@H]1N1CCC(c2ccccc2)CC1 [L(-)-vesamicol hydrochloride],-0.373
5,CCN(CC)C(C)C(=O)c1ccccc1 (configuration not stated) [Amfepramone hydrochloride],0.906
6,C[N+]1([O-])[C@@H]2C[C@@H](OC(=O)[C@H](CO)c3ccccc3)C[C@H]1[C@@H]1O[C@@H]12 (some centres not stated) [Scopolamin-N-oxide hydrobromide],-2.17
7,C[C@]12N[C@H](Cc3ccccc31)c1ccccc12 [Dizocilpine maleate],0.595
8,CC(=O)O[C@H]1C[C@H](O[C@H]2[C@@H](O)C[C@H](O[C@H]3[C@@H](O)C[C@H](O[C@H]4CC[C@@]5(C)[C@H](CC[C@@H]6[C@@H]5C[C@@H](O)[C@]5(C)[C@@H](C7=CC(=O)OC7)CC[C@]65O)C4)O[C@@H]3C)O[C@@H]2C)O[C@H](C)[C@H]1O[C@@H]1O[C@H](CO)[C@@H](O)[C@H](O)[C@H]1O [Lanatoside C],2.68
9,COc1ccc(CCN2CCC(Nc3nc4ccccc4n3Cc3ccc(F)cc3)CC2)cc1 [Astemizole],2.5
10,CC(C)(C)NCC(O)c1cc(Cl)c(N)c(Cl)c1 (configuration not stated) [Clenbuterol hydrochloride],0.875
11,Fc1ccc(C(OCCN2CCN(CCCc3ccccc3)CC2)c2ccc(F)cc2)cc1,2.65
12,COC(=O)C1=CCCN(C)C1 [Arecoline hydrobromide],-3.06
13,CCC1(CC)C(=O)C=CNC1=O [Pyrithyldione],-0.212
14,COc1ccc(Cc2nccc3cc(OC)c(OC)cc23)cc1OC [Papaverine hydrochloride],-0.0124
15,"NCC(O)c1ccc(O)cc1 (racemic) [(+,-)-Octopamine hydrochloride]",-0.29
16,COc1ccc2c3c([nH]c2c1)C(C)=NCC3 [Harmaline hydrochloride dihydrate],-0.844
17,CN1[C@@H]2CC[C@H]1C[C@@H](OC1c3ccccc3CCc3ccccc31)C2 [Deptropine citrate],1.65
18,CC[C@@]1([C@@H]2O[C@@H]([C@H]3O[C@@](O)(CO)[C@H](C)C[C@@H]3C)C[C@@H]2C)CC[C@H]([C@]2(C)CC[C@]3(C[C@H](O)[C@@H](C)[C@@H]([C@@H](C)[C@@H](OC)[C@H](C)C(=O)O)O3)O2)O1 [Monensin sodium salt],8.07
19,CCN(C)C(=O)Oc1cccc([C@H](C)N(C)C)c1 [Rivastigmine],-0.257
20,"CCC1(c2ccc(N)cc2)CCC(=O)NC1=O (configuration not stated) [Glutethimide, para-amino]",0.631
21,C[C@]12CC[C@H](O)C[C@@H]1CC[C@@H]1[C@@H]2CC[C@]2(C)C(=O)CC[C@@H]12 [Epiandrosterone],2.09
22,CN(C)C(=O)Oc1cc(OC(=O)N(C)C)cc(C(O)CNC(C)(C)C)c1 (configuration not stated) [Bambuterol hydrochloride],-1.06
23,O=[N+]([O-])c1cc([As](=O)(O)O)ccc1O [Roxarsone],0.662

# Entries from the list above containing an aryl methoxy group:
row,SMILES,perinuclear lysosome accumulation
4,COc1cc2c(cc1OC)C(C)NCC2 (configuration not stated),-1.08
13,COc1ccc2c(c1)[nH]c1c(C)nccc12 [Harmine hydrochloride],-0.264
17,COc1cc([C@@H]2c3cc4c(cc3[C@H](O)[C@H]3COC(=O)[C@H]23)OCO4)cc(OC)c1OC [Podophyllotoxin],5.29
9,COc1ccc(CCN2CCC(Nc3nc4ccccc4n3Cc3ccc(F)cc3)CC2)cc1 [Astemizole],2.5
14,COc1ccc(Cc2nccc3cc(OC)c(OC)cc23)cc1OC [Papaverine hydrochloride],-0.0124
16,COc1ccc2c3c([nH]c2c1)C(C)=NCC3 [Harmaline hydrochloride dihydrate],-0.844

# — the supplement of paper PMC8090911
